# Publication PMC7272611
# The chains behind the UniProt entries cited, without tags or fusion partners. Where a name states a change or a piece, a line headed by the entry shows the natural chain unless it says otherwise.
# UniProt Q8SWX0: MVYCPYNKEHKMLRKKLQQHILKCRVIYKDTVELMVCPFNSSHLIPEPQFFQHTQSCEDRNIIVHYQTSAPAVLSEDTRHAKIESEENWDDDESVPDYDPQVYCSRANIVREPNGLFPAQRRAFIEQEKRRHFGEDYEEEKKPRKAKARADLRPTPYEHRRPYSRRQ
# UniProt O97159: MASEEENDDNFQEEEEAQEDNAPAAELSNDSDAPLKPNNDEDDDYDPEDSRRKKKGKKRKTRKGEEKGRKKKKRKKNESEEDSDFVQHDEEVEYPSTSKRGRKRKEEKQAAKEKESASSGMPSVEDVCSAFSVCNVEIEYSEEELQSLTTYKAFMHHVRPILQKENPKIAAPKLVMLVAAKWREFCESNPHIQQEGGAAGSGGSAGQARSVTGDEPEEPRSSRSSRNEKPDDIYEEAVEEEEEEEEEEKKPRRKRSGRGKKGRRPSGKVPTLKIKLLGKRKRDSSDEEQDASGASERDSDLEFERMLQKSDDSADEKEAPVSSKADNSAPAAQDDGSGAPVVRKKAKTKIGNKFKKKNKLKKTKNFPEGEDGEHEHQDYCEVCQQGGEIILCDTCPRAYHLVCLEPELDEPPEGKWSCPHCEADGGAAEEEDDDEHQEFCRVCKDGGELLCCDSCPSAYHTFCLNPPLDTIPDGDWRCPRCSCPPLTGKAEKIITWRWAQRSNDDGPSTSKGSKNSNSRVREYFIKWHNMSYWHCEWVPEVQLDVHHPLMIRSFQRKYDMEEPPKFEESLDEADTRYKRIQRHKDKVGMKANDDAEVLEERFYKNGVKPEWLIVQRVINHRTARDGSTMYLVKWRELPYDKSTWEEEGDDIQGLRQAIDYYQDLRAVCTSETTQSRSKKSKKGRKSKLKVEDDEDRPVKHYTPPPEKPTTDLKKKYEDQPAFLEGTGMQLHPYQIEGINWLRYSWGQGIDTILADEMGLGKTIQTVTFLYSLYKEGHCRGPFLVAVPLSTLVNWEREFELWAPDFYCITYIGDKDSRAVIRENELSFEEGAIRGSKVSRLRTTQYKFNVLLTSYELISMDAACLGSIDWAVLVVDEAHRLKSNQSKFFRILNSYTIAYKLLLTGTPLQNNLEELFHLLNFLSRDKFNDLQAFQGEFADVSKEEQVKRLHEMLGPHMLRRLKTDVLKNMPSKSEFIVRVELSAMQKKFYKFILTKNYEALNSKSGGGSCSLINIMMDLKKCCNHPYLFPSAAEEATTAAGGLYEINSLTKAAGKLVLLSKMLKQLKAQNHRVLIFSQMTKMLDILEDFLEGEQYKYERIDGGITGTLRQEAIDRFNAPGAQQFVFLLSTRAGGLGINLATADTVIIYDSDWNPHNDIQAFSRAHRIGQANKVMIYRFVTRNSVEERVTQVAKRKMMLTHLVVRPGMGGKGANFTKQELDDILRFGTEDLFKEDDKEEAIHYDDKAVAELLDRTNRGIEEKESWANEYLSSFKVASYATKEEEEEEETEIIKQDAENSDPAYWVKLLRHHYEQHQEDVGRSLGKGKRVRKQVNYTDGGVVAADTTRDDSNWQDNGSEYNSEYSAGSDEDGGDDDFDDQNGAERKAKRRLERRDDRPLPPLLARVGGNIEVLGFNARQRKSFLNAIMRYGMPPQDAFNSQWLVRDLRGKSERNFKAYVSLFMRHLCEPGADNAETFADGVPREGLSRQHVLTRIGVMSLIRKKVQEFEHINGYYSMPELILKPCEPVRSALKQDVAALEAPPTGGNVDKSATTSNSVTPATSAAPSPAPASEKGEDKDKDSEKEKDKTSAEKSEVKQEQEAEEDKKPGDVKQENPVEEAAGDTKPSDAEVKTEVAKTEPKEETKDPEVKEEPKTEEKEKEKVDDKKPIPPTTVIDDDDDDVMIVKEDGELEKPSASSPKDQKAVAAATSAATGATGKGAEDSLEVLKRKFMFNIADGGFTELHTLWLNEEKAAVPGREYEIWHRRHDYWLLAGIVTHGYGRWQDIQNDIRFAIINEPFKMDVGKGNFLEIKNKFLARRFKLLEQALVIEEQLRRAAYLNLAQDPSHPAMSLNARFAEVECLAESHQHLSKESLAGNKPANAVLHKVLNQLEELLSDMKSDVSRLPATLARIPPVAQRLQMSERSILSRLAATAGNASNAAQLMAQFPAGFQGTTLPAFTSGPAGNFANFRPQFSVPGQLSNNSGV
# UniProt Q94517: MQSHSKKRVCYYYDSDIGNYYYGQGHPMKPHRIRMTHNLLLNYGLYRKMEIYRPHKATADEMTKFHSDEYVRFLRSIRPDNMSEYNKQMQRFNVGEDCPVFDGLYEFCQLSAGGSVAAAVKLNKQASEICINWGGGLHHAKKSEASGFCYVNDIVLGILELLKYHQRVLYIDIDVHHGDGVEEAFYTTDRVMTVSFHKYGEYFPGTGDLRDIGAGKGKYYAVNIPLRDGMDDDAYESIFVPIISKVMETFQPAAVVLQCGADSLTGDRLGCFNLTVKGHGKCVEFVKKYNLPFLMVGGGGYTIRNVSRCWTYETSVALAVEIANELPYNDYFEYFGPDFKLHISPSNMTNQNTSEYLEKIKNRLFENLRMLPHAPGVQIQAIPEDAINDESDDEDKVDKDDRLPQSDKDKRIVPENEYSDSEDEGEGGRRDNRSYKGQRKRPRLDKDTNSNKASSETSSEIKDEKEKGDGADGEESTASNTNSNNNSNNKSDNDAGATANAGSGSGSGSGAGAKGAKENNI
# UniProt Q24572: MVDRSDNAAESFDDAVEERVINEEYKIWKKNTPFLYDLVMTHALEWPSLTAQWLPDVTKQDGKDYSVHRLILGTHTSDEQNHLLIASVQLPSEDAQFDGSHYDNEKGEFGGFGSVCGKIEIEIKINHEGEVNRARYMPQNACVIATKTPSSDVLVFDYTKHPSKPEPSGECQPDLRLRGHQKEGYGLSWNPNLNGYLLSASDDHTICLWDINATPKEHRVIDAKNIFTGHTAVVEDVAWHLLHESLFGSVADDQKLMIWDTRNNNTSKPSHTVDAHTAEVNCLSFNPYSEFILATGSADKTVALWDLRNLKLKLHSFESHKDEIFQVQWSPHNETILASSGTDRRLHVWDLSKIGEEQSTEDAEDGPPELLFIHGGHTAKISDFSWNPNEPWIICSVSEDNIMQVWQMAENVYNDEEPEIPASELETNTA
# Where two headings read alike, the source gives them in different places. Results are given in words; binding and its absence hold for the method and conditions named. In cells and extracts the contact can be indirect. Binding calls can cover weak binding; strength is not graded here. For some of these results: Sequences can lack the tags named with a protein.
# T1: Piwi (Drosophila (endogenous in OSC)) (UniProt Q9VKM1)
# T1 sequence: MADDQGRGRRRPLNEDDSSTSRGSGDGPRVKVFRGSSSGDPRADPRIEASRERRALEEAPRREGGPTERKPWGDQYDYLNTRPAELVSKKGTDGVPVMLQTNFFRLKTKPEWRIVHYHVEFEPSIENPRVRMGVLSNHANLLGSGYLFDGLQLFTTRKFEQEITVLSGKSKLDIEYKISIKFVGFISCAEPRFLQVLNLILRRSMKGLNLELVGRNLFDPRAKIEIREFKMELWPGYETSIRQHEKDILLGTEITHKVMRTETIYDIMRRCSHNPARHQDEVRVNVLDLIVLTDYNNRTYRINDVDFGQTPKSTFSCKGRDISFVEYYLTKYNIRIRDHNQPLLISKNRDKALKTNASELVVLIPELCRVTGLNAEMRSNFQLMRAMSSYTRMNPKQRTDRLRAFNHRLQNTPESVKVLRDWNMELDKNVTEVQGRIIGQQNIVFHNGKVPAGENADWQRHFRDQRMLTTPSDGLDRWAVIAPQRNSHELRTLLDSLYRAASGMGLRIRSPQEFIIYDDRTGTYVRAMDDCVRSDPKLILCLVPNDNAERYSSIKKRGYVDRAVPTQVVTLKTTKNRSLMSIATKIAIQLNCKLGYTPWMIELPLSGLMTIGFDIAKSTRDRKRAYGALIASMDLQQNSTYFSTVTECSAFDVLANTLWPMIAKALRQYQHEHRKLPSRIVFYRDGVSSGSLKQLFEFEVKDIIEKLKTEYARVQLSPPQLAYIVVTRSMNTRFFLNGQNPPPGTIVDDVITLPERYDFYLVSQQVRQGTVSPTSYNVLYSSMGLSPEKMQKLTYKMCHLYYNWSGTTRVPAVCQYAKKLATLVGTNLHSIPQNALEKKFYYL
# How the values were obtained:
# [1] = biological target: T1, Piwi (Drosophila (endogenous in OSC)); experiment: co-IP; IP of endogenous Piwi (anti-Piwi mouse monoclonal) or endogenous MEP-1 (anti-MEP-1 rabbit polyclonal) from OSC nuclear extract (Gtsf1-FH-containing; for Fig. 6a expressing FLAG-FFL-Su(var)2-10), Nuclear Complex Co-IP Kit under stringent conditions, overnight at 4 °C, Dynabeads protein G, control IgG, western blot
# Gtsf1-GFP (Drosophila) [2] = biological target: Gtsf1-GFP (Drosophila) (UniProt Q8SWX0); experiment: co-IP; GFP-Trap on nuclear extract of OSCs transiently overexpressing a C-terminally GFP-tagged bait (Gtsf1-GFP or Su(var)2-10-GFP); control: OSCs transfected with a GFP-expressing vector; western blot
# [3] = biological target: Gtsf1 fused to the FLAG-tagged Firefly luciferase (FFL) (Drosophila (cDNA from OSC cells)); experiment: co-IP; LUMIER, semi-quantitative luminescence-based dual-luciferase co-IP: FLAG-Firefly-luciferase bait and Renilla-luciferase preys transiently co-expressed in S2R+ cells, anti-FLAG IP, co-IP efficiency normalized to the RL-mCherry co-IP
# Gtsf1-GFP (Drosophila) [4] = biological target: Gtsf1-GFP (Drosophila) (UniProt Q8SWX0); experiment: co-IP; GFP-Trap on nuclear extract of OSCs transiently overexpressing a C-terminally GFP-tagged bait (Gtsf1-GFP or Su(var)2-10-GFP); control: OSCs transfected with a GFP-expressing vector; western blot; remark: listed apart in the source
# [5] = biological target: Su(var)2-10-GFP (Drosophila); experiment: as above
# [6] = biological target: MEP-1 (Drosophila (endogenous in OSC)); experiment: co-IP; IP of endogenous Piwi (anti-Piwi mouse monoclonal) or endogenous MEP-1 (anti-MEP-1 rabbit polyclonal) from OSC nuclear extract (Gtsf1-FH-containing; for Fig. 6a expressing FLAG-FFL-Su(var)2-10), Nuclear Complex Co-IP Kit under stringent conditions, overnight at 4 °C, Dynabeads protein G, control IgG, western blot
binding [1],binding (Gtsf1-GFP (Drosophila) [2]),Molecule,other results
binds,,MEP-1 (Drosophila (endogenous in OSC)),
,binds,Mi-2 (from UniProt O97159 1-1982),
,binds,Rpd3 (from UniProt Q94517 1-521),

# Continued, molecule first:
Molecule,binding [1],binding (Gtsf1-GFP (Drosophila) [2]),other results
Gtsf1-FH (Drosophila (endogenous in OSC)),binds,,
MTA1-like (Drosophila (endogenous in OSC)),no binding,,
p55 (from UniProt Q24572 1-430),,binds,
"Piwi fused to Renilla luciferase (RL) (protein, UniProt Q9VKM1 1-843) MADDQGRGRRRPLNEDDSSTSRGSGDGPRVKVFRGSSSGDPRADPRIEASRERRALEEAPRREGGPTERKPWGDQYDYLNTRPAELVSKKGTDGVPVMLQTNFFRLKTKPEWRIVHYHVEFEPSIENPRVRMGVLSNHANLLGSGYLFDGLQLFTTRKFEQEITVLSGKSKLDIEYKISIKFVGFISCAEPRFLQVLNLILRRSMKGLNLELVGRNLFDPRAKIEIREFKMELWPGYETSIRQHEKDILLGTEITHKVMRTETIYDIMRRCSHNPARHQDEVRVNVLDLIVLTDYNNRTYRINDVDFGQTPKSTFSCKGRDISFVEYYLTKYNIRIRDHNQPLLISKNRDKALKTNASELVVLIPELCRVTGLNAEMRSNFQLMRAMSSYTRMNPKQRTDRLRAFNHRLQNTPESVKVLRDWNMELDKNVTEVQGRIIGQQNIVFHNGKVPAGENADWQRHFRDQRMLTTPSDGLDRWAVIAPQRNSHELRTLLDSLYRAASGMGLRIRSPQEFIIYDDRTGTYVRAMDDCVRSDPKLILCLVPNDNAERYSSIKKRGYVDRAVPTQVVTLKTTKNRSLMSIATKIAIQLNCKLGYTPWMIELPLSGLMTIGFDIAKSTRDRKRAYGALIASMDLQQNSTYFSTVTECSAFDVLANTLWPMIAKALRQYQHEHRKLPSRIVFYRDGVSSGSLKQLFEFEVKDIIEKLKTEYARVQLSPPQLAYIVVTRSMNTRFFLNGQNPPPGTIVDDVITLPERYDFYLVSQQVRQGTVSPTSYNVLYSSMGLSPEKMQKLTYKMCHLYYNWSGTTRVPAVCQYAKKLATLVGTNLHSIPQNALEKKFYYL",,,binding [3]: binds
"Piwi (protein, UniProt Q9VKM1 1-843) MADDQGRGRRRPLNEDDSSTSRGSGDGPRVKVFRGSSSGDPRADPRIEASRERRALEEAPRREGGPTERKPWGDQYDYLNTRPAELVSKKGTDGVPVMLQTNFFRLKTKPEWRIVHYHVEFEPSIENPRVRMGVLSNHANLLGSGYLFDGLQLFTTRKFEQEITVLSGKSKLDIEYKISIKFVGFISCAEPRFLQVLNLILRRSMKGLNLELVGRNLFDPRAKIEIREFKMELWPGYETSIRQHEKDILLGTEITHKVMRTETIYDIMRRCSHNPARHQDEVRVNVLDLIVLTDYNNRTYRINDVDFGQTPKSTFSCKGRDISFVEYYLTKYNIRIRDHNQPLLISKNRDKALKTNASELVVLIPELCRVTGLNAEMRSNFQLMRAMSSYTRMNPKQRTDRLRAFNHRLQNTPESVKVLRDWNMELDKNVTEVQGRIIGQQNIVFHNGKVPAGENADWQRHFRDQRMLTTPSDGLDRWAVIAPQRNSHELRTLLDSLYRAASGMGLRIRSPQEFIIYDDRTGTYVRAMDDCVRSDPKLILCLVPNDNAERYSSIKKRGYVDRAVPTQVVTLKTTKNRSLMSIATKIAIQLNCKLGYTPWMIELPLSGLMTIGFDIAKSTRDRKRAYGALIASMDLQQNSTYFSTVTECSAFDVLANTLWPMIAKALRQYQHEHRKLPSRIVFYRDGVSSGSLKQLFEFEVKDIIEKLKTEYARVQLSPPQLAYIVVTRSMNTRFFLNGQNPPPGTIVDDVITLPERYDFYLVSQQVRQGTVSPTSYNVLYSSMGLSPEKMQKLTYKMCHLYYNWSGTTRVPAVCQYAKKLATLVGTNLHSIPQNALEKKFYYL",,,binding (Gtsf1-GFP (Drosophila) [4]): binds; binding [5]: binds; binding [6]: binds
